{
  "source": "patent US20110319594",
  "about": "(published 2011)",
  "experiment": "solution-phase peptide synthesis; HOBt/DIC or TBTU/NMM; pentafluorophenol for Arg",
  "details": "whole synthesis, HPLC",
  "note": "*: point of attachment. Fmoc = O=C(OCC1c2ccccc2-c2ccccc21)*",
  "data": [
    {"substance": "Fmoc-GGGG-OH", "values": [
      {"measurement": "final purity (method not given)", "value": 98.54, "unit": "%"}
    ]}
  ]
}
